Measured values from patent US5010174A (Mitsubishi Petrochemical Co., Ltd., priority 1987, dated 1991).

Assay: general procedure: Boc solid-phase peptide synthesis; BHA resin (Peptide Kenkyusho, divinylbenzene 2%, 100 to 200 mesh, 0.61 meq/g); HOBt (with Boc-Asn)
Details: whole synthesis

| Substance | crude mass (scale 200 mg resin peptide) [mg] | other results |
| --- | --- | --- |
| (Oct^1, Cys(CA)^7)-CCT | 26.8 |  |
| (Oct^1, Thr^3, Cys(Acm)^7)-CCT |  | crude mass (scale 50.7 mg resin peptide): 19.2 mg |
| (Oct^1, Cys(Acm)^7)-CCT | 31.0 |  |
| (Oct^1, Ala^3, Cys(CA)^7)-CCT |  | isolated mass (scale 50 mg protected peptide resin): 0.9 mg |
